PubChem BioAssay AID504774 – Drosophila RNAi Screening Center – 2011

- Purpose: 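Fly genes whose loss alters survival after alkylation damage to DNA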 (primary screen)
- Cells: Drosophila Kc167 cells
- Knock-down reagent: long dsRNA against Drosophila genes, about 0.25 µg dsRNA per well
- Duration: about 6 days: 3 days knock-down, then 3 days with or without MMS
- Conditions: methyl methanesulphonate 0.004% (w/v) for 3 days after knock-down
- Measured: 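ATP-dependent luminescence as a measure of live cells in MMS-exposed wells, quantile normalised within each plate, with replicate values also given as a mean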
- Reading the numbers: mean viability with MMS and viability with MMS: higher = more surviving cells after MMS
The deposit covers about 23,000 reagents; this is a random part of those with a known target gene and a result. 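Values are quantile-normalised luminescence on an arbitrary scale; higher means more cells surviving MMS.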 Reagent sequences are not shown.

Gene | dsRNA | mean viability with MMS | viability with MMS, replicate 1 | viability with MMS, replicate 2
mRpS18B (mitochondrial ribosomal protein S18B) | DRSC02107 | 3.49e6 | 4.01e6 | 3.88e6
Usp1 (Ubiquitin specific protease 1) | DRSC14155 | 3.53e6 | 4.02e6 | 4.00e6
jv (javelin) | DRSC08831 | 3.47e6 | 4.01e6 | 3.87e6
jv (javelin) | DRSC08832 | 3.79e6 | 4.21e6 | 4.20e6
bsf (bicoid stability factor) | DRSC02035 | 3.40e6 | 3.78e6 | 3.86e6
CG13907 | DRSC08377 | 3.58e6 | 4.03e6 | 4.09e6
CG8001 | DRSC08611 | 3.60e6 | 4.01e6 | 4.16e6
tex | DRSC16517 | 3.32e6 | 3.73e6 | 3.86e6
Cyp313a1 (Cytochrome P450 313a1) | DRSC16624 | 3.76e6 | 4.22e6 | 4.31e6
Srp54k (Signal recognition particle 54k) | DRSC11289 | 3.64e6 | 4.24e6 | 4.04e6
Mec2 | DRSC20054 | 3.61e6 | 4.16e6 | 4.06e6
dsx (doublesex) | DRSC12649 | 3.70e6 | 4.32e6 | 3.98e6
dsx (doublesex) | DRSC16934 | 3.94e6 | 4.52e6 | 4.36e6
dsx (doublesex) | DRSC21495 | 3.80e6 | 4.26e6 | 4.30e6
Synd (Syndapin) | DRSC15116 | 3.56e6 | 3.96e6 | 4.10e6
Syn1 (Syntrophin-like 1) | DRSC11803 | 3.87e6 | 4.26e6 | 4.29e6
Syn1 (Syntrophin-like 1) | DRSC11804 | 3.56e6 | 4.06e6 | 4.01e6
PIG-Wa (Phosphatidylinositol glycan anchor biosynthesis class W a) | DRSC00728 | 3.59e6 | 4.13e6 | 4.04e6
CG11630 | DRSC03696 | 3.57e6 | 4.08e6 | 4.03e6
CG14903 | DRSC15024 | 3.49e6 | 3.86e6 | 4.06e6
Smug | DRSC15762 | 3.56e6 | 4.16e6 | 3.92e6
Drl-2 (Derailed 2) | DRSC05393 | 3.46e6 | 3.93e6 | 3.97e6
Drl-2 (Derailed 2) | DRSC06155 | 3.54e6 | 3.96e6 | 4.03e6
Drl-2 (Derailed 2) | DRSC06858 | 3.54e6 | 4.02e6 | 4.05e6
CG4830 | DRSC15657 | 3.43e6 | 3.90e6 | 3.92e6
CG14949 | DRSC08408 | 3.72e6 | 4.16e6 | 4.17e6
CG14969 | DRSC08428 | 3.49e6 | 3.88e6 | 4.02e6
Nprl3 (Nitrogen permease regulator-like 3) | DRSC11044 | 3.51e6 | 3.96e6 | 3.99e6
